The target in the assay is RenU.6H expressed in M. smegmatis (M. smegmatis) (UniProt A0QQK6). As to the kind of experiment: affinity purification with mass spectrometry; RenU.6H expressed in M. smegmatis, purified from cell lysates (immobilized Cobalt affinity chromatography); co-purified proteins identified by LC/MS/MS.

Amino acid sequences for entries named in this document (tags omitted). A change or cut given only in a name is not applied to a line headed by its entry.
UniProt A0QQK6: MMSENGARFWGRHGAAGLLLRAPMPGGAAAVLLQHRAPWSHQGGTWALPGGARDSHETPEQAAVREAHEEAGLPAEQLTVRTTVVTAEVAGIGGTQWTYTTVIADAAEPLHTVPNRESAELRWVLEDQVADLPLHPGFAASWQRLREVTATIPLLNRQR

Results are given in words; binding and its absence hold for the method and conditions named. Binding seen in cells or lysates may run through a third protein. These calls come from enrichment with a bait or labelling near it, and not all partners need be listed.

B1: ssrA-binding protein SmpB of M. smegmatis (endogenous) (protein, UniProt A0QU63 1-161)
chain: MTKKSASSNNKVVATNRKARHNYTILDTYEAGIVLMGTEVKSLREGQASLADAFATVDDGEIWLRNVHIAEYHHGTWTNHAPRRNRKLLLHRKQIDNLIGKIRDGNLTLVPLSIYFTDGKVKVELALARGKQAHDKRQDLARRDAQREVIRELGRRAKGKI
In the case of B1, the binding result is “binds”.

B2: 50S ribosomal protein L13 of M. smegmatis (endogenous) (protein, UniProt A0QSP8 1-147)
chain: MPTYTPKAGDTTRSWYVIDASDVVLGRLASAAATLLRGKHKPTFTPNVDGGDFVIVINADKIAVSGDKLTKKFAYRHSGYPGGLRKRTIGELLEKHPTRVVENAIIGMLPHNKLGRQIQKKLKVYAGPDHPHAAQQPIPFEIKQVAQ
As for B2, the binding result was “binds”.

Values taken from PMC4401782.
